Measurements reported in PubChem BioAssay (Tox21).
Values joined by “and” are separate entries in the source; they are usually repeats but may differ in a detail not shown here. Equal values may be shown once. The inconclusive results got no clear call from the source; some entries with a clear call stand among them for comparison. A potency beside an inconclusive call is a rough fit, not a confirmed value. Active and inactive are the calls of the source. Calls follow the shape of the dose curve; as a rule, active = well fitted cell-killing curve with a large enough effect in the repeat runs; inconclusive = weak or mixed curves, or effect the other way; inactive = flat fitted curve, though single readings scatter.

Assay: cAMP Responsive Elements (CRE) small molecule agonists, cell-based qHTS assay: qHTS cell viability counter screen (AID 2060914);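 also: viability read after 3 h of compound exposure; nearly all actives have a fitted effect of over 50% in size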
Details: CRE-bla HEK293T viability, CellTiter-Glo luminescence, 5 h; series mostly up to 92.4 µM
Excerpt: National Center for Advancing Translational Sciences [NCATS]
Division of Preclinical Innovation [DPI]
U.S. Environmental Protection Agency [EPA]
National Institutes of Environmental Health Sciences [NIEHS]
National Toxicology Program [NTP]
U.S. Food and Drug Administration [FDA]
CREB (cyclic-AMP Responsive Element Binding Protein) is a cellular transcription factor. It binds to certain DNA sequences called cAMP Responsive Elements (CRE) and regulates the transcription of the genes. […] This cell line can be used to find agonists/antagonists of the cyclic AMP signaling pathway. The activation of the report gene under culture conditions can be detected by fluorescence intensity. This cell line has been used to screen the Tox21 10K compound library to identify agonists that induce oxidative stress. The cytotoxicity of the Tox21 compound library against the CRE-bla cell line was tested in parallel by measuring the cell viability using CellTiter-Glo assay (Promega, Madison, WI) in the same wells.
Tox21 Assay Protocol Summary:
CRE-bla Hek 293T cells were suspended in assay medium (DMEM containing 10% dialyzed FBS, 0.1 mM NEAA, 1 mM sodium pyruvate and 25 mM HEPES) and dispensed at 2,000 cells/5 uL /well into 1536-well black wall/clear bottom plates using a Multidrop Combi (ThermoFisher Scientific, Waltham, MA) dispenser. After the assay plates were incubated at 37 C/5% CO2 for 18 hrs, 23 nL of compounds dissolved in DMSO, positive controls or DMSO only was transferred to the assay plate by a pintool workstation (Kalypsys, San Diego, CA). After the plates were incubated at 37 C/5% CO2 for 3 hrs, 1 uL of LiveBLAzer B/G FRET substrate (Invitrogen, Carlsbad, CA) was added to each well using Bioraptr Flying Reagent Dispenser (FRD, Aurora Discovery, San Diego, CA). The plates were incubated at room temperature for 2 h, then fluorescence intensities were measured using an Envision plate reader (PerkinElmer, Shelton, CT) at Excitation 405nm, Emission 460nm and 530nm. The % activity was determined from the ratio of 460nm/530nm. For cell viability readout that measures cytotoxicity, 4 uL /well of CellTiter-Glo reagent was added into the assay plates using Bioraptr FRD. After 30 min incubation at room temperature, the luminescence intensity in the assay plates was measured using a ViewLux (PerkinElmer, Shelton, CT) plate reader.
Potency is read from the fitted curve at half-maximal effect.

| Compound | Potency |
| --- | --- |
| CNc1cnn(-c2cccc(C(F)(F)F)c2)c(=O)c1Cl | inconclusive: 2.35 µM [cytotoxic, single point] |
| CCOC(=O)CC(SP(=O)(OC)OC)C(=O)OCC (stereo not given) | inactive |
| CCOc1ccc(C(C)(C)COCc2cccc(Oc3ccccc3)c2)cc1 | inconclusive: 24.3 µM [cytotoxic, partial curve, poor fit] |
| CC(=O)[O][Sn]([c]1ccccc1)([c]1ccccc1)[c]1ccccc1 | active: 30.6 µM |
| Oc1cc(Cl)c(Cl)c(Cl)c1 | inconclusive: 36.6 µM [cytotoxic, partial curve, poor fit] |
| CCN(CC)C(=O)/C(Cl)=C(\C)OP(=O)(OC)OC | inconclusive: 19.3 µM [rising, partial curve, poor fit] |
| c1cc2ccc3cccc4ccc(c1)c2c34 | inconclusive: 22.7 µM [cytotoxic, partial curve, poor fit] |
| C[C@]12CC[C@H]3[C@@H](CC[C@@]45O[C@@H]4C(O)=C(C#N)C[C@]35C)[C@@H]1CC[C@@H]2O | inconclusive: 68.6 µM [rising, single point] |
| Brc1ccc(Oc2ccc(Br)cc2Br)c(Br)c1 | inconclusive: 34.4 µM [cytotoxic, partial curve, poor fit] |
| Clc1ccc(Cl)c(Cl)c1 | inconclusive: 15.4 µM [cytotoxic, single point] |
| [O]=[Cr](=[O])([OH])[O][Cr](=[O])(=[O])[OH] | inconclusive: 6.92 µM [cytotoxic, full curve, poor fit] and inconclusive: 6.1 µM [cytotoxic, full curve, poor fit] |
| CC(C)CCCCCCCOP(=O)(Oc1ccccc1)Oc1ccccc1 | inactive |
| Cc1cccc(C)c1N | inactive |
| COc1cccc2c1C(=O)c1c(O)c3c(c(O)c1C2=O)C[C@@](O)(C(=O)CO)CC3OC1CC(N2CCOC(OC)C2)C(O)C(C)O1 (stereo not given in full) | inconclusive: 0.668 µM [cytotoxic, single point] |
| CC(C)N(Cc1ccccc1)C(=O)C(C)(C)C | inactive |
| CC(C)Oc1cccc(NC(=O)c2ccccc2C(F)(F)F)c1 | inconclusive: 43.3 µM [cytotoxic, partial curve, poor fit] |
| Oc1ccc2c3c1O[C@H]1[C@@H](O)C=C[C@H]4[C@@H](C2)NCC[C@@]341 | inconclusive: 1.58 µM [cytotoxic, single point] |
| CCOC(=O)c1ccccc1N | inconclusive: 0.0017 µM [rising, full curve, poor fit] |
| ClC(Cl)=C(c1ccc(Cl)cc1)c1ccc(Cl)cc1 | inconclusive: 27.3 µM [cytotoxic, single point] |
| CCCSP(=S)(OCC)Oc1ccc(SC)cc1 (stereo not given) | inconclusive: 61.1 µM [cytotoxic, single point] |

| Compound | Potency |
| --- | --- |
| Oc1cccc2cccnc12 | inconclusive: 68.6 µM [cytotoxic, single point] |
| ClC1=C(Cl)[C@]2(Cl)[C@@H]3[C@H]4C[C@H]([C@@H]5O[C@H]45)[C@@H]3[C@@]1(Cl)C2(Cl)Cl | inconclusive: 61.1 µM [cytotoxic, partial curve, poor fit] |
| O=S(=O)(O)O | inconclusive: 1.4 µM [cytotoxic, single point] |
| O=CCCl | inconclusive: 13.7 µM [cytotoxic, single point] |
| CCCCOC(=O)[C@@H](C)Oc1ccc(Oc2ccc(C#N)cc2F)cc1 | inconclusive: 0.242 µM [cytotoxic, single point] |
| CCCCCCCCCCCC[N+](C)(C)CCOc1ccccc1 | active: 61.1 µM and inconclusive: 10.6 µM [cytotoxic, partial curve] |
| CCSC(C)CC1CC(=O)C(/C(CC)=N/OC/C=C/Cl)=C(O)C1 (stereo not given) | inconclusive: 0.75 µM [cytotoxic, single point] |
| O=c1c2ccccc2c(=O)c2c1cc(Cl)c1[nH]c3c([nH]c12)c(Cl)cc1c(=O)c2ccccc2c(=O)c13 | inconclusive: 13.7 µM [cytotoxic, single point] |
| Nc1cc(Cl)cc(C(=O)O)c1Cl | inactive |
| Cc1cccc(N)c1N | inconclusive: 9.69 µM [cytotoxic, single point] |
| Cl/C=C/Cl | inconclusive: 26.4 µM [cytotoxic, single point] |
| CC(O)C(=O)[O][Hg][c]1ccccc1 (stereo not given) | active: 12.2 µM |
| C=CCOC(Cn1ccnc1)c1ccc(Cl)cc1Cl (stereo not given) | inconclusive: 18.8 µM [cytotoxic, single point] |
| O=C(Cl)OCCOCCOC(=O)Cl | inactive |
| CC(C)(C)C(O)C(Oc1ccc(Cl)cc1)n1cncn1 (stereo not given) | inconclusive: 6.86 µM [cytotoxic, single point] |
| Cc1ccc(N)cc1 | inconclusive: 27.5 µM [cytotoxic, full curve, poor fit] |
| O=P(Cl)(Cl)Cl | inactive |
| CC(C)Br | inconclusive: 6.13 µM [cytotoxic, full curve, poor fit] |
| CC(C)[N+](=O)[O-] | inconclusive: 13.5 µM [cytotoxic, single point] |

Looked up by structure from above, 3 records:

| Compound | Potency |
| --- | --- |
| CC(O)C(=O)[O][Hg][c]1ccccc1 (stereo not given) | active: 12.2 µM |
| C=CCOC(Cn1ccnc1)c1ccc(Cl)cc1Cl (stereo not given) | inconclusive: 18.8 µM [cytotoxic, single point] |
| CCCCOC(=O)[C@@H](C)Oc1ccc(Oc2ccc(C#N)cc2F)cc1 | inconclusive: 0.242 µM [cytotoxic, single point] |
